Reference: paper PMC9772183
No constants are given. Whether binding was seen depends on the method and setting. Tags and fused reporters may be left off the sequences shown.

Target: Ash-GABARAP, O95166
Assay: Fluoppi; Ash-tagged LC3 or GABARAP co-expressed with hAG-tagged CDK5RAP3 in HEK293T; fluorescent foci in living cells
Details: remark: other sources report otherwise

- binding: no binding
B1: hAG-tagged CDK5RAP3 LC3-interacting region-mutant (CDK5RAP3^3WA), Q96JB5 1-506 (protein)
chain: MEDHQHVPIDIQTSKLLDWLVDRRHCSLKWQSLVLTIREKINAAIQDMPESEEIAQLLSGSYIHYFHCLRILDLLKGTEASTKNIFGRYSSQRMKDWQEIIALYEKDNTYLVELSSLLVRNVNYEIPSLKKQIAKCQQLQQEYSRKEEECQAGAAEMREQFYHSCKQYGITGENVRGELLALVKDLPSQLAEIGAAAQQSLGEAIDVYQASVGFVCESPTEQVLPMLRFVQKRGNSTVYEWRTGTEPSVVERPHLEELPEQVAEDAIDAGDFGVEAVSEGTDSGISAEAAGIDAGIFPESDSKDPGGDGIDAGDDAVALQITVLEAGTQAPEGVARGPDALTLLEYTETRNQFLDELMELEIFLAQRAVELSEEADVLSVSQFQLAPAILQGQTKEKMVTMVSVLEDLIGKLTSLQLQHLFMILASPRYVDRVTEFLQQKLKQSQLLALKKELMVQKQQEALEEQAALEPKLDLLLEKTKELQKLIEADISKRYSGRPVNLMGTSL
